Results reported in publication PMC9816108.
These are yes or no findings as the source states them, for the method shown. Binding seen in cells or lysates may run through a third protein. Here binding means that the protein was enriched with, or labelled near, the bait; the list need not be complete. For some assays here: No binding means not detected with the bait. For some assays here: Tags and fused reporters may be left off the sequences shown.

What was measured:
[1] = biological target: GABAA receptor α1 subunit (mouse (endogenous in forebrain)) (UniProt P62812); assay: affinity purification with mass spectrometry; α1 and α2 (pHα2) receptors immunopurified from mouse forebrain plasma membrane fractions, BN-PAGE, 720 kDa species excised, label-free LC-MS/MS; only proteins significantly enriched over control (non-immune IgG, or anti-9E10 in wild type tissue)
[2] = biological target: T1, GABAA receptor α1 subunit (mouse (endogenous in forebrain)), P62812; assay: as above; settings: remark: other sources report otherwise
T1 chain: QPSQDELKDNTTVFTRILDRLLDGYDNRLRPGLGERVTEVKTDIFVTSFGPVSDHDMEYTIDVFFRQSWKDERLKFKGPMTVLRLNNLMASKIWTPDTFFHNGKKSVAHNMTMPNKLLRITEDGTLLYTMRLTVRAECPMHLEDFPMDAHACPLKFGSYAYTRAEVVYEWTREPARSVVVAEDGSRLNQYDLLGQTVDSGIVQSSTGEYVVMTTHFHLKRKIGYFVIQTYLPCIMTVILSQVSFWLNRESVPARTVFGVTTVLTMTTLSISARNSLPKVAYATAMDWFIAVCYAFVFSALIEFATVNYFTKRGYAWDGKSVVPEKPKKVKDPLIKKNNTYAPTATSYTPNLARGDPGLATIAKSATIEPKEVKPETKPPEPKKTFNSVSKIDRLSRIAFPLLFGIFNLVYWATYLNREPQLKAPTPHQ

[3] = biological target: T1, GABAA receptor α1 subunit (mouse …); assay: affinity purification with mass spectrometry; mouse forebrain plasma membranes solubilised in 0.5% Triton; α1 receptors with immobilised α1 monoclonal antibody from wild type tissue, α2 receptors with anti-9E10 (myc) beads from pHα2 tissue; soft elution, BN-PAGE, 250 kDa band excised, LC-MS/MS against control purifications; settings: remark: other sources report otherwise
[4] = biological target: T2, GABAA receptor α2 subunit modified with pHluorin and 9E10 (myc) epitope on its N-terminus (mouse (knock-in, forebrain)), P26048; assay: as above; settings: remark: other sources report otherwise
T2 chain: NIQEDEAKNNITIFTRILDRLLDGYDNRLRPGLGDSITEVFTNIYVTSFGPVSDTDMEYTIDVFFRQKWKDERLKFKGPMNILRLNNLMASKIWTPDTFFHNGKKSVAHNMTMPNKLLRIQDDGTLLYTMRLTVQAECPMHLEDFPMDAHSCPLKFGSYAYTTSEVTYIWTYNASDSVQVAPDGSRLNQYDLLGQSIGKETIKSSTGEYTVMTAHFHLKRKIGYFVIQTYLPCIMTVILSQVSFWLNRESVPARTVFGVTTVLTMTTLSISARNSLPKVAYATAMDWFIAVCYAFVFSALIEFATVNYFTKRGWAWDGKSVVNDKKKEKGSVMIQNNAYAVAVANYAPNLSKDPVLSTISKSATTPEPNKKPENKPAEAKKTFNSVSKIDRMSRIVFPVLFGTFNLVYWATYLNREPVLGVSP

B1: Synpo (protein, UniProt Q8CC35 1-929)
chain: MLGAHFPPPPLGASEGRAAPCTFQIPDGSYRCLALEAEESSSEDGLQGEVRLVDLEEEGTSQSRANHGTPPLSRAPAIIQPSSCHREARGGFQRSDRPSHDWDVVQARKVMTASGSSSPVPRVAQKPALGRSTSFTENDLKEAKARSQQIAAQLTTPPSSNSRGVQLFNRRRQRVNEFTLESRGQRSPKLNQEALQTGRPLSPIGHAPGPSVKPTSPSKPGSPKHPSPQSPSRGVAGHIMEGYSEEASLLRHLEKVASEEEEVPLVVYLKENAALLTANGLHLSQSRETQQSSPNPPDTEVPSPAADINQNPSSPNATLTTLASSSHHSQPTADINQNPPAAITPVPQNSSQAQCSPNGTLDSKPGTLCADDGQSPVPAEEVRSSILLIDKVSAPPSAASTFSREATPLSSSGPPAADLMSSSLLIDMQPSTLVAPAEQEVPGHVAVTTPTKVYSEVHLTLAKPASVVNRTARPFGIQSPGTSQIEQSPMMGRRQFGEKAWAPPASSMADRSPQPQRHIMSRSPMVERRLLGQRSPVLERRPLGNFTPPPTYAETLSTAPVASRVRSPPSYSTLYPSSDPKPSHLKGQVAPANKTGILEESMARRGSRKSMFTFVEKPKVTPNPDLLDLVQTADEKRRQRDHGEVGMEEEPFALGAEASNFQQEPIARDRASPAAAEEAVPEWASCLKSPRIQAKPKPKPNQNLSEASGKGAELYARRQSRMEKYVIESSGHAELARCPSPTMSLPSSWKYTTNAPGGFRVASLSPARTPPASLYHGYLPENGVLRPEPTKQQPYQMRPSLYALSPVKEPAKASSRATSSRTPSRTVSPRAASPAKPSSLDLVPNLPRAGLPPSPALPRPSRSSPGLYTAPVQDSLQPTAVSPTYSSDISPVSPSRAWSPRAKQAPRPSFSTRNAGIEAQVWKPSFCFK
With B1 the binding [1] was “binds”.

B2: Ina (protein, UniProt P46660 1-501)
chain: MSFGSEHYLCSASSYRKVFGDSSRLSARLSGPGGSGSFRSQSLSRSNVASTAACSSASSLGLGLAYRRLPASDGLDLSQAAARTNEYKIIRTNEKEQLQGLNDRFAVFIEKVHQLETQNRALEAELAALRQRHAEPSRVGELFQRELRELRAQLEEASSARAQALLERDGLAEEVQRLRARCEEESRGREGAERALKAQQRDVDGATLARLDLEKKVESLLDELAFVRQVHDEEVAELLATLQASSQAAAEVDVAVAKPDLTSALREIRAQYESLAAKNLQSAEEWYKSKFANLNEQAARSTEAIRASREEIHEYRRQLQARTIEIEGLRGANESLERQILELEERHSAEVAGYQDSIGQLESDLRNTKSEMARHLREYQDLLNVKMALDIEIAAYRKLLEGEETRFSTGGLSISGLNPLPNPSYLLPPRILSSTASKVSSAGLSLKKEEEEEEEEASKEVSKKTSKVGEGFEETLGEAVISTKKTGKSATEESTSSSQKM
With B2 the binding [1] was “binds”.

B3: gephyrin, Q8BUV3 1-769 (protein)
chain: MATEGMILTNHDHQIRVGVLTVSDSCFRNLAEDRSGINLKDLVQDPSLLGGTISAYKIVPDEIEEIKETLIDWCDEKELNLILTTGGTGFAPRDVTPEATKEVIEREAPGMALAMLMGSLNVTPLGMLSRPVCGIRGKTLIINLPGSKKGSQECFQFILPALPHAIDLLRDAIVKVKEVHDELEDLPSPPPPLSPPPTTSPHKQTEDKGVQCEEEEEEKKDSGVASTEDSSSSHITAAALAAKIPDSIISRGVQVLPRDTASLSTTPSESPRAQATSRLSTASCPTPKQIRRPDESKGVASRVGSLKARLPSCSSTYSVSEVQSRCSSKENILRASHSAVDITKVARRHRMSPFPLTSMDKAFITVLEMTPVLGTEIINYRDGMGRVLAQDVYAKDNLPPFPASVKDGYAVRAADGPGDRFIIGESQAGEQPTQTVMPGQVMRVTTGAPIPCGADAVVQVEDTELIRESDDGTEELEVRILVQARPGQDIRPIGHDIKRGECVLAKGTHMGPSEIGLLATVGVTEVEVNKFPVVAVMSTGNELLNPEDDLLPGKIRDSNRSTLLATIQEHGYPTINLGIVGDNPDDLLNALNEGISRADVIITSGGVSMGEKDYLKQVLDIDLHAQIHFGRVFMKPGLPTTFATLDIDGVRKIIFALPGNPVSAVVTCNLFVVPALRKMQGILDPRPTIIKARLSCDVKLDPRPEYHRCILTWHHQEPLPWAQSTGNQMSSRLMSMRSANGLLMLPPKTEQYVELHKGEVVDVMVIGRL
For B3, the binding [2] was “binds”.

B4: GABAA receptor α4 subunit, Q9D6F4 36-552 (receptor)
chain: QNSKDEKLCPENFTRILDSLLDGYDNRLRPGFGGPVTEVKTDIYVTSFGPVSDVEMEYTMDVFFRQTWIDKRLKYDGPIEILRLNNMMVTKVWTPDTFFRNGKKSVSHNMTAPNKLFRIMRNGTILYTMRLTISAECPMRLVDFPMDGHACPLKFGSYAYPKSEMIYTWTKGPEKSVEVPKESSSLVQYDLIGQTVSSETIKSITGEYIVMTVYFHLRRKMGYFMIQTYIPCIMTVILSQVSFWINKESVPARTVFGITTVLTMTTLSISARHSLPKVSYATAMDWFIAVCFAFVFSALIEFAAVNYFTNIQMQKAKKKISKPPPEVPAAPVLKEKHTETSLQNTHANLNMRKRTNALVHSESDVKSRTEVGNHSSKTSAVQESSEATPKAHLASSPNPFSRANAAETMSAAARGLSSAASPSPHGTLRPASLGSASTRPAFGSRLGRIKTTVNTTGAAGNVSATPPPPAPPPSGSGTSKIDKYARILFPVTFGAFNMVYWVVYLSKDTMEKSESLM
In the case of B4, the binding [3] is reported as “no binding”.

B5: GABAA receptor α5 subunit, Q8BHJ7 26-463 (receptor)
chain: SHFGFSQMPTSSVQDETNDNITIFTRILDGLLDGYDNRLRPGLGERITQVRTDIYVTSFGPVSDTEMEYTIDVFFRQSWKDERLRFKGPMQRLPLNNLLASKIWTPDTFFHNGKKSIAHNMTTPNKLLRLEDDGTLLYTMRLTISAECPMQLEDFPMDAHACPLKFGSYAYPNSEVVYVWTNGSTKSVVVAEDGSRLNQYHLMGQTVGTENISTSTGEYTIMTAHFHLKRKIGYFVIQTYLPCIMTVILSQVSFWLNRESVPARTVFGVTTVLTMTTLSISARNSLPKVAYATAMDWFIAVCYAFVFSALIEFATVNYFTKRGWAWDGKKALEAAKIKKKERELILNKSTNAFTTGKLTHPPNIPKEQPPAGTANAPTVSIKASEEKTAESKKTYNSISKIDKMSRIVFPILFGTFNLVYWATYLNREPVIKGATSPK
For B5, the binding [4] was “no binding”.
